Results deposited as PubChem BioAssay AID1224830 (NIAID, 2016)
In all, the deposit lists about 18,000 reagents; this is an unselected part. About 2,900 of all reagents (16%) were called active. 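Calls are made per well; low scores hint the gene aids the LPS response, high scores that it dampens it.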 Repeated entries: four replicate wells of each siRNA pool.

- Aim: 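Host factors that control LPS-induced TNF expression in human macrophages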 (primary screen)
- Cell system: human THP-1 monocytic leukaemia cells, TNF dual-luciferase reporter clone, PMA-differentiated to macrophage-like cells
- Knock-down reagent: siRNA pool against human genes, 50 nM
- Duration: LPS for 4 h, given about 3 days after siRNA transfection
- Conditions: bacterial LPS (TLR4 ligand), 10 ng/ml
- Measured: 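Ratio of firefly to renilla light, scaled to the plate median and expressed as a robust z-score per replicate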
- Scale: TNF reporter robust z-score: higher = stronger TNF reporter response to LPS
- Hit rule: 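Each well counts as active if its z-score is over 2.8 or under -1.5; controls are left without a call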

{"Gene":"KLF14 (KLF transcription factor 14)","PubChem SID":"SID315462007","TNF reporter robust z-score":2.3,"Call":"inactive"}
{"Gene":"KLF14 (KLF transcription factor 14)","PubChem SID":"SID315462007","TNF reporter robust z-score":1.15,"Call":"inactive"}
{"Gene":"KLF14 (KLF transcription factor 14)","PubChem SID":"SID315462007","TNF reporter robust z-score":2.24,"Call":"inactive"}
{"Gene":"KLF14 (KLF transcription factor 14)","PubChem SID":"SID315462007","TNF reporter robust z-score":1.59,"Call":"inactive"}
{"Gene":"BTBD2 (BTB domain containing 2)","PubChem SID":"SID315457738","TNF reporter robust z-score":0.39,"Call":"inactive"}
{"Gene":"BTBD2 (BTB domain containing 2)","PubChem SID":"SID315457738","TNF reporter robust z-score":0.3,"Call":"inactive"}
{"Gene":"BTBD2 (BTB domain containing 2)","PubChem SID":"SID315457738","TNF reporter robust z-score":-0.12,"Call":"inactive"}
{"Gene":"BTBD2 (BTB domain containing 2)","PubChem SID":"SID315457738","TNF reporter robust z-score":0.45,"Call":"inactive"}
{"Gene":"POU2AF2 (POU class 2 homeobox associating factor 2)","PubChem SID":"SID315464109","TNF reporter robust z-score":-0.47,"Call":"inactive"}
{"Gene":"POU2AF2 (POU class 2 homeobox associating factor 2)","PubChem SID":"SID315464109","TNF reporter robust z-score":-0.63,"Call":"inactive"}
{"Gene":"POU2AF2 (POU class 2 homeobox associating factor 2)","PubChem SID":"SID315464109","TNF reporter robust z-score":-1.35,"Call":"inactive"}
{"Gene":"POU2AF2 (POU class 2 homeobox associating factor 2)","PubChem SID":"SID315464109","TNF reporter robust z-score":-1.6,"Call":"active"}
{"Gene":"BBOX1 (gamma-butyrobetaine hydroxylase 1)","PubChem SID":"SID315452550","TNF reporter robust z-score":1.76,"Call":"inactive"}
{"Gene":"BBOX1 (gamma-butyrobetaine hydroxylase 1)","PubChem SID":"SID315452550","TNF reporter robust z-score":1.18,"Call":"inactive"}
{"Gene":"BBOX1 (gamma-butyrobetaine hydroxylase 1)","PubChem SID":"SID315452550","TNF reporter robust z-score":-0.15,"Call":"inactive"}
{"Gene":"BBOX1 (gamma-butyrobetaine hydroxylase 1)","PubChem SID":"SID315452550","TNF reporter robust z-score":0.86,"Call":"inactive"}
{"Gene":"OCLN (occludin)","PubChem SID":"SID315450344","TNF reporter robust z-score":-0.57,"Call":"inactive"}
{"Gene":"OCLN (occludin)","PubChem SID":"SID315450344","TNF reporter robust z-score":-0.34,"Call":"inactive"}
{"Gene":"OCLN (occludin)","PubChem SID":"SID315450344","TNF reporter robust z-score":1.57,"Call":"inactive"}
{"Gene":"OCLN (occludin)","PubChem SID":"SID315450344","TNF reporter robust z-score":-0.81,"Call":"inactive"}
{"Gene":"ZNF831 (zinc finger protein 831)","PubChem SID":"SID315461805","TNF reporter robust z-score":-0.6,"Call":"inactive"}
{"Gene":"ZNF831 (zinc finger protein 831)","PubChem SID":"SID315461805","TNF reporter robust z-score":0.99,"Call":"inactive"}
{"Gene":"ZNF831 (zinc finger protein 831)","PubChem SID":"SID315461805","TNF reporter robust z-score":-0.94,"Call":"inactive"}
{"Gene":"ZNF831 (zinc finger protein 831)","PubChem SID":"SID315461805","TNF reporter robust z-score":-0.1,"Call":"inactive"}
{"Gene":"TIMM23B (translocase of inner mitochondrial membrane 23 homolog B)","PubChem SID":"SID315454082","TNF reporter robust z-score":3.29,"Call":"active"}
{"Gene":"TIMM23B (translocase of inner mitochondrial membrane 23 homolog B)","PubChem SID":"SID315454082","TNF reporter robust z-score":0.1,"Call":"inactive"}
{"Gene":"TIMM23B (translocase of inner mitochondrial membrane 23 homolog B)","PubChem SID":"SID315454082","TNF reporter robust z-score":-1.16,"Call":"inactive"}
{"Gene":"TIMM23B (translocase of inner mitochondrial membrane 23 homolog B)","PubChem SID":"SID315454082","TNF reporter robust z-score":0.11,"Call":"inactive"}
{"Gene":"IL33 (interleukin 33)","PubChem SID":"SID315460868","TNF reporter robust z-score":0.01,"Call":"inactive"}
{"Gene":"IL33 (interleukin 33)","PubChem SID":"SID315460868","TNF reporter robust z-score":0.79,"Call":"inactive"}
{"Gene":"IL33 (interleukin 33)","PubChem SID":"SID315460868","TNF reporter robust z-score":0.38,"Call":"inactive"}
{"Gene":"IL33 (interleukin 33)","PubChem SID":"SID315460868","TNF reporter robust z-score":1.37,"Call":"inactive"}
{"Gene":"RIPOR2 (RHO family interacting cell polarization regulator 2)","PubChem SID":"SID315453534","TNF reporter robust z-score":-1.58,"Call":"active"}
{"Gene":"RIPOR2 (RHO family interacting cell polarization regulator 2)","PubChem SID":"SID315453534","TNF reporter robust z-score":-1.52,"Call":"active"}
{"Gene":"RIPOR2 (RHO family interacting cell polarization regulator 2)","PubChem SID":"SID315453534","TNF reporter robust z-score":-1.64,"Call":"active"}
{"Gene":"RIPOR2 (RHO family interacting cell polarization regulator 2)","PubChem SID":"SID315453534","TNF reporter robust z-score":-1.27,"Call":"inactive"}
{"Gene":"GPATCH8 (G-patch domain containing 8)","PubChem SID":"SID315455012","TNF reporter robust z-score":-0.28,"Call":"inactive"}
{"Gene":"GPATCH8 (G-patch domain containing 8)","PubChem SID":"SID315455012","TNF reporter robust z-score":-0.47,"Call":"inactive"}
{"Gene":"GPATCH8 (G-patch domain containing 8)","PubChem SID":"SID315455012","TNF reporter robust z-score":-0.77,"Call":"inactive"}
{"Gene":"GPATCH8 (G-patch domain containing 8)","PubChem SID":"SID315455012","TNF reporter robust z-score":1.53,"Call":"inactive"}
{"Gene":"TNFRSF11B (TNF receptor superfamily member 11b)","PubChem SID":"SID315450359","TNF reporter robust z-score":1.64,"Call":"inactive"}
{"Gene":"TNFRSF11B (TNF receptor superfamily member 11b)","PubChem SID":"SID315450359","TNF reporter robust z-score":2.86,"Call":"active"}
{"Gene":"TNFRSF11B (TNF receptor superfamily member 11b)","PubChem SID":"SID315450359","TNF reporter robust z-score":1.73,"Call":"inactive"}
{"Gene":"TNFRSF11B (TNF receptor superfamily member 11b)","PubChem SID":"SID315450359","TNF reporter robust z-score":2.93,"Call":"active"}
{"Gene":"PNPLA3","PubChem SID":"SID315459763","TNF reporter robust z-score":-0.97,"Call":"inactive"}
{"Gene":"PNPLA3","PubChem SID":"SID315459763","TNF reporter robust z-score":-0.61,"Call":"inactive"}
{"Gene":"PNPLA3","PubChem SID":"SID315459763","TNF reporter robust z-score":-0.82,"Call":"inactive"}
{"Gene":"PNPLA3","PubChem SID":"SID315459763","TNF reporter robust z-score":-0.44,"Call":"inactive"}
{"Gene":"WDR86 (WD repeat domain 86)","PubChem SID":"SID315464257","TNF reporter robust z-score":0.69,"Call":"inactive"}
{"Gene":"WDR86 (WD repeat domain 86)","PubChem SID":"SID315464257","TNF reporter robust z-score":-0.85,"Call":"inactive"}
{"Gene":"WDR86 (WD repeat domain 86)","PubChem SID":"SID315464257","TNF reporter robust z-score":0.54,"Call":"inactive"}
{"Gene":"WDR86 (WD repeat domain 86)","PubChem SID":"SID315464257","TNF reporter robust z-score":0.15,"Call":"inactive"}
{"Gene":"TXNDC5 (thioredoxin domain containing 5)","PubChem SID":"SID315459896","TNF reporter robust z-score":2.77,"Call":"inactive"}
{"Gene":"TXNDC5 (thioredoxin domain containing 5)","PubChem SID":"SID315459896","TNF reporter robust z-score":3.04,"Call":"active"}
{"Gene":"TXNDC5 (thioredoxin domain containing 5)","PubChem SID":"SID315459896","TNF reporter robust z-score":3.13,"Call":"active"}
{"Gene":"TXNDC5 (thioredoxin domain containing 5)","PubChem SID":"SID315459896","TNF reporter robust z-score":1.41,"Call":"inactive"}
{"Gene":"SLC45A1","PubChem SID":"SID315456347","TNF reporter robust z-score":0.23,"Call":"inactive"}
{"Gene":"SLC45A1","PubChem SID":"SID315456347","TNF reporter robust z-score":-0.08,"Call":"inactive"}
{"Gene":"SLC45A1","PubChem SID":"SID315456347","TNF reporter robust z-score":-0.5,"Call":"inactive"}
{"Gene":"SLC45A1","PubChem SID":"SID315456347","TNF reporter robust z-score":-0.62,"Call":"inactive"}
